B1: Mouse hybridoma clone 16G5 (antibody, V domains shown)
VH: QVQLQQPGAELVRPGAAVKLSCKASGYTFTSYWMHWVKQRPGQGLEWIGEINPTNGRTNYNENFKSKATLTVDKSSSTAYMQLSSLTSEDSAVYYCARGTRAYHFWGQGTSVTVSS
VL: DIQLTQTPASLSVSVGETVTITCRASENIYSNLAWYQQKQGKSPQLLVYAATDLADGVPSRFRGSGSGTQYSLKINSLQSEDFGSYYCQHFWGTPLTFGAGTKLELI
B2: Mouse hybridoma clone 1B12 (antibody, V domains shown)
VH: EVKLVESGGGLVQPGGFLKLSCATSGFTFSDYYMYWVRQTPEKRLEWVASISNGGDNTYYPDTVKGRFTISRDNAKNTLYLQMSRLKSEDTAMYYCARQGALYDGYYRGAMDYWGQGTSVTVSS
VL: QIVLTQSPAIMSASLGGRVTMTCTTSSSVPSSYFHWYQQKPGSSPKLWIYSTSNLASGVPARFSGSGSGTSYSLTISSMEAEDAATYYCHQYHRSPFTFGSGTKLEIK
B3: Mouse hybridoma clone 13D4 (antibody, V domains shown)
VH: QVQLQQSGAELMKPGASVKISCKAAGYTFSNYWIEWVKQRPGHGLEWIGEILPGSGSTKYNEKFKGKATFTADTSSNTAYMQLSSLTSEDSAVYYCARRGGYGYDGEFAYWGQGTLVTVSA
VL: DIQMTQTTSSLSASLGDRVTINCRAGQDITNYLNWFQQKPDGTVKLLIYYTSRLHSGVPSRFSGSGSGTDYSLTITNLEQEDIATYFCQQANTLPYTFGGGTKLEIK
B4: Mouse hybridoma clone 16F6 (antibody, V domains shown)
VH: DVQLQESGPGLVKPSQSLSLTCTVTGNSITSEYAWNWIRQFPGNKLEWMGYISYSGTTSYNPSLKSRISITRDTSKNQLFLQLNSVTTEDTATYFCARYGYGNPATRYFDVWGAGTTVTVSS
VL: DVQITQSPSYLTASPGETITINCRASKSISKYLAWYQEKPGKTNKLLIYSGSTLQSGIPSRFSGSGSGTDFTLTISNLEPEDFAMYYCQQHNEYPWTFGGGTKLEIK
B5: Mouse hybridoma clone 7G7 (antibody, V domains shown)
VH: QVQLQQPGSELVRPGASVKLSCKASGYTFTSYWMHWVKQRHGQGLEWIGNIYPGSGSTKYDERFKSKGTLTVDTSSSTAYMHLSSLTSEDSAVYYCTRGGYDSRAWFAYWGQGTLVTVSA
VL: DIVLTQSPASLAVSLGQRATISCRARQSVSTSSYSFMHWYRQKAGQPPKLLIKYASIQESGVPARFSGSGSGTDFTLNILPVEEEDTATYYCQHTWEIPFTFGSGTKLEIK
B6: Mouse hybridoma clone 4C2 (antibody, V domains shown)
VH: B5 VH with R63K, Y109H
VL: B5 VL with R41Q, A44P, K107N
B7: Mouse hybridoma clone 10D11 (antibody, V domains shown)
VH: QVQLQQSGPELVRPGVAVKISCKGSGYKFIDYGMHWVKQSHTKSLQWIGVISPYSGKTNYSQKFKGKATMTVDKSSSTAYMELARLTSEDSAIYYCARGLSGNFVMDFWGQGTSVTVSS
VL: DIVLTQSPASLAVSLGQRATISCRASESVDSYGPSFMHWYQQKPGQPPKLLIYRASNLESGIPARFSGSGSRTDFTLTINPVEADDVATYYCQHSNEDPPTFGGGTRLEIK
B8: Mouse hybridoma clone 15D2 (antibody, V domains shown)
VH: QVQLQQSGPELVRPGVSVKISCKGSGYTVTDYAMHWVKQSHAKSLEWIGVISFYSGKTNYNQKFMGKATMTVDKSSSTAYMELARLTSEDSAIYYCARGLSGNYVMDYWGQGTSVTVSS
VL: B7 VL with P34N, H94Q, D98G, R107K
B9: Mouse hybridoma clone 7B10 (antibody, V domains shown)
VH: B8 VH with V29F, V50G, F53T, S55F, K57R, M65K, K67R, I93L
VL: B7 VL with S31D, P34N, H94Q, D98A, R107K, K111R
B10: Mouse hybridoma clone 8A2 (antibody, V domains shown)
VH: B8 VH with V29F, A33G, F53P, K57R, K63N, M65K, M81L, M106V
VL: B7 VL with P34N, H94Q, D98G, R107K
B11: Mouse hybridoma clone 7A4 (antibody, V domains shown)
VH: B8 VH with V29F, V50G, F53T, S55F, K57R, M65K, K67R, I93L
VL: B7 VL with S31D, P34N, H94Q, D98A, R107K, K111R
B12: 7A4 HC/8A2 LC (antibody, V domains shown)
VH: B8 VH with V29F, V50G, F53T, S55F, K57R, M65K, K67R, I93L
VL: B7 VL with P34N, H94Q, D98G, R107K

Numbering of substitutions follows the chain as printed. These are yes or no findings as the source states them, for the method shown. Some binding calls cover weakened binding; strength is not graded here.

The first assay has as its target Full length cyno TfR on transfected 293 cells (cynomolgus monkey). Description: FACS, 293 cells transfected with full length TfR, 1 uM holo-Tf present. Background: Flow cytometry measures light scatter and fluorescence of single cells or particles in a stream.
For B1, the binding entry is given as “binds”.
In the case of B2, the binding result is reported as “binds”.
As to B3, the binding result is given as “binds”.
Take B4: the binding entry was “binds”.
With B5, the binding result was “binds”.
For B6, the binding entry is given as “binds”.
On the same count and under the same terms, with B7 the entry was “binds”; with B8, “binds”; with B9, “binds”.
The same measure, in the same setting: the same measure for B10: “binds”.
On to B11, for which the binding result was “binds”.

Another assay concerns the target Full length human TfR on cells (transfected 293 cells; HEL cells) (human) (UniProt P02786). The assay is described as above.
For the molecule B7, the binding entry is listed as “binds”.
Same read-out and setting: the same measure for B9: “binds”; for B11: “binds”.

The target of the next assay is Human TfR extracellular domain (ecd) containing an N-terminal His tag (human) (UniProt P02786). Description: ELISA on purified huTfR.
Turning to B7, the binding result was “binds”.
The same measure, in the same setting: with B9 the entry was “binds”; with B11, “binds”.

The target of a further assay is Full length cyno TfR on transfected 293 cells (cynomolgus monkey). Description: FACS, supernatant on transfected 293 cells, 1 uM holo-Tf present.
Regarding B1, the binding result is “binds”.
For the molecule B2, the binding result is recorded as “binds”.
In the case of B3, the binding entry is listed as “binds”.
As for B4, the binding result is recorded as “binds”.
Consider B5, for which the binding entry is on record as “binds”.
Consider B6, for which the binding result is “binds”.
As for B7, the binding entry was “binds”.
On the same count and under the same terms, the same measure for B8: “binds”; for B9: “binds”.
For the molecule B10, the binding result is “binds”.
With B11, the binding entry is “binds”.

In the next assay the target is Full length human TfR on cells (transfected 293 cells; HEL cells) (human) (UniProt P02786). Described as above.
With B7, the binding result is “binds”.
Consider B9, for which the binding entry is recorded as “binds”.
B11: the binding entry is “binds”.

The target of another assay is Cyno TfR extracellular domain (analogous ecd construct) (cynomolgus monkey). Description: ELISA on purified cyno TfR. A general note: ELISA stands for enzyme-linked immunosorbent assay.
Turning to B1, the binding entry was “binds”.
Same read-out and setting: with B2 the entry was “binds”; with B3, “binds”.
As for B4, the binding result was “binds”.
In the case of B5, the binding result is recorded as “binds”.
For B6, the binding entry was “binds”.
Regarding B7, the binding entry was “binds”.
Same read-out and setting: with B8 the entry was “binds”; with B12, “binds”.
With B9, the binding result is given as “binds”.
As to B10, the binding result was “binds”.
Still for that read-out and setting: with B11 the entry was “binds”.

The record behind these values is patent publication US20210087288A1.
